Publication PMC10987651
Results are given in words; binding and its absence hold for the method and conditions named. Binding seen in cells or lysates may run through a third protein. Some results given as binding are weak or reduced against the parent protein; the word gives no strength.

Columns and labels:
Test in all cases: FRET or BRET + co-IP
[1] = molecular target: ORF7b (SARS-CoV-2) (UniProt P0DTD8)
[2] = molecular target: NSP9 (SARS-CoV-2) (UniProt P0DTD1)
[3] = molecular target: ORF3a (SARS-CoV-2) (UniProt P0DTC3)
[4] = molecular target: membrane glycoprotein M (SARS-CoV-2) (UniProt P0DTC5)
[5] = molecular target: NSP6 (SARS-CoV-2) (UniProt P0DTD1)

NSP4 (from UniProt P0DTD1 2764-3263) was tested, and the binding [1] was “binds”.

In the case of ORF3a (from UniProt P0DTC3 1-275), the binding [2] is reported as “binds” and the binding [3] is reported as “binds”.

“envelope protein E (from UniProt P0DTC4 1-75)” was tested, and the binding [4] was “binds” and the binding [5] was “binds”.

With “membrane glycoprotein M (from UniProt P0DTC5 1-222)” the binding [3] was “binds”.
